One substance from PMC6554399 can be followed below.

Sequences of proteins named here, by UniProt entry; tags and fusion partners are left off. Residues count along the entry.
UniProt P18065, residues 36-325: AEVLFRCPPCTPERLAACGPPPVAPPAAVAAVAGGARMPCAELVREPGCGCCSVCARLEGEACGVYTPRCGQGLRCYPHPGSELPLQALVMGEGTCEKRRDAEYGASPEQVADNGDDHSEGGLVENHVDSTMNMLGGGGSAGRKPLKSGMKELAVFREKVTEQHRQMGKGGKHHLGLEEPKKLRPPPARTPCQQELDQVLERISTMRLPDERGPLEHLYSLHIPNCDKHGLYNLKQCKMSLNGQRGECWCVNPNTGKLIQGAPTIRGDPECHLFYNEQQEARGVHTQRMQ
UniProt P06276, residues 29-602: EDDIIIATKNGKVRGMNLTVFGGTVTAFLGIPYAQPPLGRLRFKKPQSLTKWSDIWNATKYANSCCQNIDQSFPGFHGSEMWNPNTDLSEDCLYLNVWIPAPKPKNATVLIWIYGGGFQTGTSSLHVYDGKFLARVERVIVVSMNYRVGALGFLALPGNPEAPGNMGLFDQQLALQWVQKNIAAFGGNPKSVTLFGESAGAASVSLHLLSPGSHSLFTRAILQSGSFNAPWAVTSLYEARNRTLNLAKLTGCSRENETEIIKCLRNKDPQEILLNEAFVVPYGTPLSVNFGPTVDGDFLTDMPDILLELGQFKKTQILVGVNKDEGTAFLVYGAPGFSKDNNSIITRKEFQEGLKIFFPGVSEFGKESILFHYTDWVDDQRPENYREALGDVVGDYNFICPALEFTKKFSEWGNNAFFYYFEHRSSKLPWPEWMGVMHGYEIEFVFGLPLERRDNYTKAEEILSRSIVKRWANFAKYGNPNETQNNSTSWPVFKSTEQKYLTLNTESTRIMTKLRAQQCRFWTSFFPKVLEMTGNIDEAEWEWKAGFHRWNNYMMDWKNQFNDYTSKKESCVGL

The target of the experiment is insulin growth factor binding protein 2 (IGFBP2) (human (endogenous in plasma)) (UniProt P18065). The experiment is described as follows: affinity purification with mass spectrometry; IP-MS/MS: antibody against the bait covalently coupled to magnetic beads, pooled human EDTA plasma diluted 1:10 in assay buffer (PVA, PVP, casein, 10% rabbit IgG), heat-treated (56 °C, 30 min) or untreated, overnight at 23 °C; washed with 0.03% Chaps in PBS, digested on beads, LC-MS/MS, MaxLFQ, z-scores over 414 IPs.

Results are given in words; binding and its absence hold for the method and conditions named. Binding seen in cells or lysates may run through a third protein. Here binding means that the protein was enriched with, or labelled near, the bait; the list need not be complete.

For the substance “butyrylcholine esterase (BCHE) (from UniProt P06276 29-602) (enzyme)”, the binding entry was “binds”.
